Literature values, collected in patent US20100004166A1, “Endothelin and Endothelin Receptor Agonists in the Treatment of Metabolic Diseases” (priority 2007, published 2010).
Part of at least one peptide drawing is inferred or uncertain, most often the ends. Where a SMILES comes first, the peptide text is derived from it. Bridges are numbered along the chain shown (N, C = ends).

Target: T1, ETB (Homo sapiens, UniProt P24530)
T1 sequence (P24530 27-442): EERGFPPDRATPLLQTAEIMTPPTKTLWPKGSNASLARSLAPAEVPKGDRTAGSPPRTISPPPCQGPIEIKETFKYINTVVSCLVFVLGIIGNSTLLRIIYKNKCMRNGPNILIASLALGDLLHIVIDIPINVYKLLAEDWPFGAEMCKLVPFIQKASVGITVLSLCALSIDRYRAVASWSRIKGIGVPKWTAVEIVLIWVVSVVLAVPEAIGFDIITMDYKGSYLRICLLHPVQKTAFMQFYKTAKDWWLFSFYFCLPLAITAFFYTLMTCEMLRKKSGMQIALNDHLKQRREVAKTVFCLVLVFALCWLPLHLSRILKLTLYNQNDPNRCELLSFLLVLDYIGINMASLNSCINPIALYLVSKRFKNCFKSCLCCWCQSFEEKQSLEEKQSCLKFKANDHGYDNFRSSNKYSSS
Conditions: cited from earlier work

CC[C@H](C)[C@H](NC(=O)[C@H](CC(=O)O)NC(=O)[C@H](CC(C)C)NC(=O)[C@H](Cc1c[nH]cn1)NC(=O)[C@@H]1CSSC[C@H](N)C(=O)N[C@@H](CO)C(=O)N[C@H]2CSSC[C@H](NC(=O)[C@H](CCC(=O)O)NC(=O)[C@H](CCCCN)NC(=O)[C@H](CC(=O)O)NC(=O)[C@H](CC(C)C)NC(=O)[C@H](Cc3c[nH]c4ccccc34)NC(=O)[C@H](CO)NC(=O)[C@H](CO)NC2=O)C(=O)N[C@@H](C(C)C)C(=O)N[C@@H](Cc2ccc(O)cc2)C(=O)N[C@@H](Cc2ccccc2)C(=O)N1)C(=O)N[C@H](C(=O)N[C@@H](Cc1c[nH]c2ccccc12)C(=O)O)[C@@H](C)CC [ET-2, reference compound] (H-CSCSSWLDKECVYFCHLDIIW-OH; disulfide 1-15, 3-11)
affinity for ETB: equipotent affinity
